This is one part of the list. These are further read-outs of the screen, such as a control signal, another cell line or another target. No call is given for them. The list favours compounds with an active or inconclusive main result. The note in brackets gives the kind of curve behind each potency; many fits are weak.
Assay: IkB Signaling
Conditions: ABC-DLBCL IkBa-CBG/CBR dual luciferase ratio (green luciferase fused to IkBa over red control in OCI-Ly3 lymphoma cells), 4 h
Procedure, shortened: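 Curves were fitted separately to fusion (green), unfused (red) and ratio luminescence, then classed by r2, magnitude and activity. Cells: OCI-Ly3, 4 h compound plus doxycycline at 37C; 10 uM MG-132 defined full response.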

[1] = measured here: control luc red channel unless noted
[2] = measured here: IkB-luc green channel
[3] = measured here: control luc red channel

## COc1ccc(C(=O)CSc2nc(C)cc(C)c2C(=O)Nc2ccccc2C)cc1
[1]
  AC50: 3.16 µM [falling, partial curve]

## COc1ccc(Cl)cc1NC(=O)Cn1ncc2c3ccccc3n(C)c2c1=O
[2]
  AC50: 31.6 µM [rising, single point]
[3]
  AC50: 25.1 µM [rising, partial curve]

## CCCN(Cc1cccs1)C(=O)Nc1cc(Cl)ccc1C
[1]
  AC50: 10 µM [falling, partial curve]

## Cc1ccc2[nH]c3c(=O)n(CC(=O)NCc4ccco4)ncc3c2c1
[1]
  AC50: 0.00631 µM [rising, full curve, poor fit]

## O=C(NCc1ccc(Cl)cc1)c1ccc2c(Cl)c3c(nc2c1)CCCC3
[1]
  AC50: 7.94 µM [falling, full curve]

## Cc1ccc(C)c(N2CCN(C(=O)CCC(=O)Nc3ccc4nc(N5CCCCC5)cc(C)c4c3)CC2)c1
[1]
  AC50: 3.16 µM [falling, partial curve]

## C=CCn1c(SCc2ccccc2C#N)nnc1-c1cc(Br)ccc1O
[1]
  AC50: 15.8 µM [falling, partial curve]

## CCOC(=O)c1cccc(NC(=O)CCCn2nc(C)c3c(C)n(-c4ccccc4)nc3c2=O)c1
[1]
  AC50: 6.31 µM [falling, partial curve]

## CCOC(=O)c1c(C)n(-c2ccccc2)c2ccc(OC(=O)c3ccccc3NC(=O)C(C)C)cc12
[1]
  AC50: 0.794 µM [rising, full curve]

## O=C(NCc1ccccc1F)C1CCN(c2nnc(-n3cccc3)s2)CC1
[1]
  AC50: 2 µM [falling, full curve]

## COc1ccccc1NC(=O)CSc1nnc(-c2ccccc2C)o1
[1]
  AC50: 39.8 µM [falling, single point]

## COc1ccc2c(c1)c(=O)c(C(=O)c1ccccc1)cn2CC(=O)Nc1ccc2c(c1)OCCO2
[1]
  AC50: 20 µM [falling, single point]

## COCCNC(=O)c1ccc2c(=O)n(CCc3ccccc3)c(SCC(=O)CC(=O)OC)nc2c1
[1]
  AC50: 12.6 µM [falling, partial curve]

## COc1cccc(-c2nc(S(=O)(=O)c3ccccc3)c(N3CCCCC3)o2)c1
[1]
  AC50: 20 µM [falling, partial curve]

## CCC(C)NC(=O)CSc1nc2cc3c(cc2c(=O)n1CCCC(=O)NCCc1ccc(OC)c(OC)c1)OCO3 (centres undefined)
[1]
  AC50: 7.94 µM [rising, partial curve, poor fit]

## COc1ccccc1CNC(=O)c1ccc(CS(=O)(=O)c2c(Cl)cccc2Cl)o1
[1]
  AC50: 20 µM [falling, single point]

## CCc1ccc(CNC(=O)c2c3c(nc4ccccc24)C(=O)N(C2CCCCC2)C3)cc1
[1]
  AC50: 25.1 µM [falling, partial curve]

## Cn1c(C(C#N)C2=C(Cl)C(=O)N(c3ccccc3)C2=O)nc2ccccc21 (centres undefined)
[1]
  AC50: 12.6 µM [falling, partial curve]

## Cc1ccccc1OCCCCn1c(-c2ccc(Cl)cc2)nc2ccccc2c1=O
[1]
  AC50: 0.794 µM [falling, partial curve]

## CCOC(=O)c1ccc(N2C(=O)c3[nH]nc(-c4ccc(C)cc4)c3C2c2ccc(O)c(OCC)c2)cc1 (centres undefined)
[1]
  AC50: 3.16 µM [falling, full curve]

## COc1cc2c(=O)c(C(=O)c3ccc(C)c(C)c3)cn(Cc3ccccc3F)c2cc1OC
[1]
  AC50: 31.6 µM [falling, single point]

## COc1ccc(Nc2nc(-c3cccc(Cl)c3)c3c(n2)-c2ccccc2OC3)cc1
[1]
  AC50: 7.94 µM [rising, single point]

## CCOc1ccccc1CNC(=O)Cc1ccc(NC(=O)N2CCCCc3ccccc32)cc1
[1]
  AC50: 12.6 µM [falling, partial curve]

## CCOc1ccc(NC(=O)CSc2nc3ccsc3c(=O)n2C(C)CC)cc1 (centres undefined)
[1]
  AC50: 0.2 µM [falling, full curve, poor fit]

## CCOc1ccc(CCNC(=O)CCc2c(C)nc3c(c(C)nn3-c3ccc(C)c(C)c3)c2C)cc1
[1]
  AC50: 31.6 µM [falling, single point]

## Cc1cccc2c1-c1sc(C(=O)N3CCN(c4ccccc4)CC3)cc1CO2
[1]
  AC50: 0.631 µM [falling, full curve]

## COc1ccc(-c2noc(N3CCC(C(=O)N4CCN(c5ccccc5OC)CC4)CC3)n2)cc1
[1]
  AC50: 15.8 µM [falling, partial curve]

## Cc1ccc2nc(NCc3ccccc3)c3nnnn3c2c1
[1]
  AC50: 3.16 µM [rising, full curve]

## CCOc1cccc(Nc2nn(-c3ccc(OC(F)(F)F)cc3)nc2C(C)=O)c1
[1]
  AC50: 10 µM [falling, partial curve]

## CCOC(=O)c1cnc2c(C)c(Cl)ccc2c1NCCc1ccc(OC)c(OC)c1
[1]
  AC50: 12.6 µM [falling, partial curve]

## COc1ccc(-c2nc3ccccc3s2)cc1O
[1]
  AC50: 6.31 µM [falling, partial curve]

## Cc1nnc(C)n1-c1ccc(C(=O)Nc2cccc(Br)c2)cc1
[1]
  AC50: 0.631 µM [rising, full curve, poor fit]

## COc1cccc(N2CCN(c3c4c(nc5nncn35)CCC4)CC2)c1
[1]
  AC50: 39.8 µM [falling, single point]

## Cc1cccc(Cn2cc3c(=O)n(CC(=O)Nc4c(C)cccc4C)nc-3c3cc(F)ccc32)c1
[1]
  AC50: 31.6 µM [falling, single point]

## CCOC(=O)c1cnc(SCC(=O)c2ccc3c(c2)OCCO3)nc1N
[1]
  AC50: 20 µM [falling, partial curve]

## O=C1C(c2ccccn2)=[N+]([O-])c2ccccc21
[1]
  AC50: 31.6 µM [falling, partial curve, poor fit]

## COC(=O)c1cc2oc3ccccc3c2n1Cc1nc(-c2ccccc2Cl)oc1C
[1]
  AC50: 1.26 µM [rising, full curve]

## O=C(NCCN1CCN(c2ccccc2)CC1)Nc1cccc(Br)c1
[1]
  AC50: 39.8 µM [falling, single point]

## Cc1ccc(NC(=O)C2CCN(S(=O)(=O)c3c(C)noc3C)CC2)cc1
[1]
  AC50: 6.31 µM [falling, partial curve]

## CCOC(=O)c1cnn(-c2ccc(C(=O)Nc3ccc(OC(F)(F)F)cc3)cc2)c1N
[1]
  AC50: 0.00794 µM [rising, full curve, poor fit]

## Fc1ccc(-c2nnn(Cc3nc4ccccc4s3)n2)cc1
[1]
  AC50: 39.8 µM [falling, single point]

## CCOC(=O)c1ccc(NC(=O)C2CC(=O)NC(=Nc3ccc(C)c(C)c3)S2)cc1 (centres undefined)
[1]
  AC50: 20 µM [falling, partial curve]

## CCCCN(C)CCNC(=O)c1ccc(Cn2c(=O)[nH]c3cc(OC)c(OC)cc3c2=O)cc1
[1]
  AC50: 0.501 µM [falling, full curve, poor fit]

## CCc1ccc(CNC(=O)c2ccc3c(Cl)c4c(nc3c2)CCCC4)cc1
[1]
  AC50: 15.8 µM [falling, partial curve]

## Cc1ccc(C)c(NC(=O)Cn2cc(C(=O)C3CCCCC3)c3ccccc32)c1
[1]
  AC50: 20 µM [falling, single point]

## O=C(CN1CCCN(Cc2ccc(Cl)cc2)S1(=O)=O)Nc1ccccc1F
[1]
  AC50: 39.8 µM [falling, single point]

## COc1cccc2c1Oc1ncccc1N(C(=O)CCC(=O)NCc1ccc(N(C)C)cc1)C2
[1]
  AC50: 31.6 µM [falling, single point]

## COc1ccccc1NC(=O)c1ccc2c(Cl)c3c(nc2c1)CCCC3
[1]
  AC50: 3.16 µM [falling, partial curve]

## CCOC(=O)c1c(C)[nH]c(C)c1S(=O)(=O)N1CCC(C(=O)N2CCN(c3ccc(Cl)cc3)CC2)CC1
[1]
  AC50: 31.6 µM [falling, partial curve]

## CCOc1ccc(NC(=O)N2CC=C(c3c[nH]c4ccccc34)CC2)cc1
[1]
  AC50: 5.01 µM [falling, partial curve]

## COC(=O)c1ccc(Cl)cc1NC(=O)N1CCCn2nc(C)cc21
[1]
  AC50: 1.58 µM [rising, partial curve]

## CCCCOC(=O)CSc1nnc(-c2ccccc2)o1
[1]
  AC50: 0.158 µM [falling, full curve]

## CC(=O)Nc1nonc1-c1nnc(SCC(=O)Nc2cc(C)cc(C)c2)n1C
[1]
  AC50: 31.6 µM [falling, single point]

## Cc1ccc(C)c(N2CCN(C(=O)CN3CCSc4ccc(S(=O)(=O)N(C)C)cc43)CC2)c1
[1]
  AC50: 2.51 µM [falling, full curve]

## COc1ccccc1CNc1ccc(-c2nc(C)no2)cc1[N+](=O)[O-]
[1]
  AC50: 10 µM [falling, partial curve]

## Cc1oc2ncn(CC(C)C)c(=O)c2c1C(=O)N1CCN(c2ccc(F)cc2)CC1
[1]
  AC50: 0.2 µM [rising, full curve]

## COc1cccc(NC(=O)/C(C#N)=C\c2cn(Cc3ccc(C)cc3)c3ccccc23)c1
[1]
  AC50: 2.51 µM [falling, partial curve]

## O=C(c1ccc(C(F)(F)F)cc1)N1CCC(c2nc(-c3ccc(S(=O)(=O)N4CCCC4)cc3)no2)CC1
[1]
  AC50: 15.8 µM [falling, partial curve]

## COc1cc2c(cc1O)C(SC)=NC(C)(C)C2
[2]
  AC50: 6.31 µM [rising, single point]
[3]
  AC50: 39.8 µM [falling, single point]

## Cc1cccc(C)c1NC(=O)c1csc2c1CCCC2
[1]
  AC50: 25.1 µM [falling, single point]

## O=C(NCCCc1nc2ccccc2n1Cc1cccc(Cl)c1)c1ccco1
[1]
  AC50: 15.8 µM [falling, single point]

## Cc1cccnc1NC(=O)COc1ccc2oc3c(c2c1)CCCC3
[1]
  AC50: 39.8 µM [falling, single point]
